Reference: PubChem BioAssay (Tox21)
Values joined by “and” are separate entries in the source; they are usually repeats but may differ in a detail not shown here. Equal entries are not always repeated. The inconclusive results got no clear call from the source; some entries with a clear call stand among them for comparison. For some assays here: Potencies of inconclusive entries are doubtful fits and often do not repeat. Active and inactive are the calls of the source. Unless noted, the call rests on the fitted dose curve.

Chains of the proteins cited; added tags and fusions are not shown.
UniProt P14416, whole entry, looked up: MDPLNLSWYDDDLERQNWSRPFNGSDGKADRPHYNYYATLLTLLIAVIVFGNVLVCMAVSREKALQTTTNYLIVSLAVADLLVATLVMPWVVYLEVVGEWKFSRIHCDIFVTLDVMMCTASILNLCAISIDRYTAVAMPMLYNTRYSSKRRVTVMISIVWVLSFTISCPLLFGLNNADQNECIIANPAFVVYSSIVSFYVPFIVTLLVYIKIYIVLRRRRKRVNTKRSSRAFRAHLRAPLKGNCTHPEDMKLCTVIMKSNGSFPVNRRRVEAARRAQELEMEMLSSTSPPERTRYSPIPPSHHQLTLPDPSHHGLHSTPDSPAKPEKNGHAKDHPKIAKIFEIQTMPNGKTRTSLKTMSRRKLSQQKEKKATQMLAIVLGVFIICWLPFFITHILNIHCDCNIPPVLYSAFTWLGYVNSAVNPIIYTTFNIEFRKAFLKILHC

target: Beta-2 adrenergic receptor (Homo sapiens) (UniProt P07550); assay: Adrenergic beta2 receptor (ADRB2) small molecule agonists, cell-based qHTS assay (AID 1963593); conditions: CHO-ADRB2 cells, cAMP HTRF, 30 min; at 92.4 µM (top of the series);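 further: CHO cells stably overexpressing human ADRB2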
Method in brief: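 CHO cells stably over-expressing ADRB2 were plated overnight at 37C, then dosed with compounds plus a stimulation mix containing 100uM IBMX and 25uM Ro-20-1724 for 0.5hr at room temperature. cAMP was measured by HTRF competition, 1hr.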
On the % scale 0 is the no-effect control and ±100 the full control effect.

| SMILES | activation |
| --- | --- |
| O=P(OCCCl)(OCCCl)OCCCl | inactive: -9.23% |
| O=C(O)C1C(C(=O)O)C2(Cl)C(Cl)=C(Cl)C1(Cl)C2(Cl)Cl (stereo not given) | inactive: 24% |
| ClCCOCCCl | inactive: 18.7% |

target: D(2) dopamine receptor (Homo sapiens) (UniProt P14416); assay: Dopamine D2 receptor (DRD2) small molecule agonists, cell-based qHTS assay (AID 1963594); conditions: HEK293-DRD2 cAMP HTRF, agonist mode, 30 min; activation: at 92.4 µM (top of the series) unless noted; further: nearly all actives have a fitted effect of over 35% in size; further: potency means the concentration at half of the fitted maximal effect
Method in brief: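 HEK293 cells stably expressing DRD2 were cultured 24 h at 37 C, then given Ro20-1724 (0.1 mM final) and compounds for 10 min at room temperature. NKH477 (200nM) was then added for 30 min. cAMP was read by HTRF.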

| SMILES | Potency | activation |
| --- | --- | --- |
| CN(C)[C@@H]1C(=O)C(C(N)=O)=C(O)[C@@]2(O)C(=O)C3=C(O)c4c(O)cccc4[C@@](C)(O)[C@H]3C[C@@H]12 | inconclusive: 59.9 µM [rising, partial curve] | – |
| N#Cc1ccc(N(CC(N)=O)CC(F)(F)F)cc1C(F)(F)F | – | inconclusive: -30.8% |
| COc1ccc(-c2ccccc2)cc1NNC(=O)OC(C)C | inconclusive: 80.2 µM [falling, partial curve, poor fit] | – |
| COP(N)(=O)SC (stereo not given) | inconclusive: 0.0024 µM [rising, full curve, poor fit] | – |
| Cn1cc(-c2ccccc2)c(=O)c(-c2cccc(C(F)(F)F)c2)c1 | – | inconclusive: 4.14% |
| CCOP(=S)(OCC)Oc1ccc2c(C)c(Cl)c(=O)oc2c1 | inconclusive: 51 µM and inconclusive: 63.5 µM | – |
| CC(C)N(Cc1ccccc1)C(=O)C(C)(C)C | inconclusive: 0.611 µM [rising, single point] | – |

target: D(2) dopamine receptor (Homo sapiens) (UniProt P14416); assay: Dopamine D2 receptor (DRD2) small molecule antagonists, cell-based qHTS assay (AID 1963595; active means well fitted inhibition curve with a large enough effect in the signal ratio in the repeat runs, with a control signal flat; inconclusive means weak or mixed curves, or effect the other way; the % refers to the signal ratio; further: potency means the concentration at half of the fitted maximal effect); conditions: HEK293-DRD2 cAMP HTRF antagonist mode; activity change, negative = inhibition: at 92.4 µM (top of the series) unless noted
Method in brief: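 In this cell-based antagonist screen, compounds act for 10 min at room temperature before a 30 min challenge with 12 nM quinpirole and 200 nM NKH477. cAMP is quantified by HTRF competition in DRD2-HEK293 cells containing 0.1 mM Ro20-1724.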

| SMILES | Potency | activity change, negative = inhibition |
| --- | --- | --- |
| CN(C)[C@@H]1C(=O)C(C(N)=O)=C(O)[C@@]2(O)C(=O)C3=C(O)c4c(O)cccc4[C@@](C)(O)[C@H]3C[C@@H]12 | inconclusive: 68.8 µM | – |
| C=CC[C@]1(O)CC[C@H]2[C@@H]3CCC4=CC(=O)CCC4=C3C=C[C@@]21C | inconclusive: 29.8 µM [inhibitor, partial curve, poor fit] | – |
| CC1N=C(N)OC1c1ccccc1 (stereo not given) | – | inconclusive: -1.58% |
| C[C@H]1O[C@H](OC2[C@@H](O)[C@@H](O)C(O)[C@H](O)[C@H]2O)[C@@H](N)C[C@@H]1N=C(N)C(=O)O (stereo not given in full) | inactive | – |
| CC(C)(O)C(Cl)(Cl)Cl | – | inconclusive: 4.37% [at 42.5 µM] |
| CCCCCCCCn1sccc1=O | inconclusive: 28.6 µM [inhibitor, single point] | – |
| CN(C)c1ccc(N=O)cc1 | inconclusive: 48.7 µM [cytotoxic, partial curve] and inconclusive: 61.1 µM | – |
| Cn1cc(-c2ccccc2)c(=O)c(-c2cccc(C(F)(F)F)c2)c1 | inactive | – |
| CCOP(=S)(OCC)Oc1ccc2c(C)c(Cl)c(=O)oc2c1 | inconclusive: 31 µM [fluorescent, partial curve] and inconclusive: 61.1 µM [fluorescent, partial curve] | – |
| CC(=O)/C=C/c1ccc2c(c1)OCO2 | inconclusive: 27.4 µM [cytotoxic, partial curve] | – |

Three structures already listed, ordered by SMILES length, smallest number first:

| SMILES | Potency | activity change, negative = inhibition |
| --- | --- | --- |
| CCCCCCCCn1sccc1=O | inconclusive: 28.6 µM [inhibitor, single point] | – |
| CN(C)c1ccc(N=O)cc1 | inconclusive: 48.7 µM [cytotoxic, partial curve] and inconclusive: 61.1 µM | – |
| CC(=O)/C=C/c1ccc2c(c1)OCO2 | inconclusive: 27.4 µM [cytotoxic, partial curve] | – |
